Assay results taken from US20250295608A1, “PHARMACEUTICAL COMPOSITIONS AND METHODS FOR TREATING OSTEOARTHRITIS” (INSIGNIA PHARMACEUTICALS, LLC, priority 2024, published 2025).

Key:
[1] = test system: SOX9 versus RUNX2; test: Relative expression of SOX9 versus RUNX2 in osteoarthritic chondrocytes; assay type: cell-based, human; conditions: low passage osteoarthritic chondrocytes; 7, 14, 28 days
[2] = test system: type II collagen (Col2a1); test: Col2a1 relative expression in osteoarthritic chondrocytes (qRT-PCR); assay type: cell-based, human; conditions: low passage osteoarthritic chondrocytes, day 28

C[C@@H]1C[C@H]2[C@@H]3CCC4=CC(=O)C=C[C@]4(C)[C@@]3(F)[C@@H](O)C[C@]2(C)[C@@]1(O)C(=O)COP(=O)(O)O [Dxp, dexamethasone phosphate, reference compound]
ratio of SOX9/RUNX2 [1]: reduced
relative expression of Col2a1 [2]: reduction
